These results are taken from the supplement of paper PMC10849652.

Protein sequences, listed by entry. Tags and fused reporters are not part of them. Lines headed by an entry give the natural chain unless they say otherwise; changes in a name come on top.
UniProt P15056, whole entry, looked up: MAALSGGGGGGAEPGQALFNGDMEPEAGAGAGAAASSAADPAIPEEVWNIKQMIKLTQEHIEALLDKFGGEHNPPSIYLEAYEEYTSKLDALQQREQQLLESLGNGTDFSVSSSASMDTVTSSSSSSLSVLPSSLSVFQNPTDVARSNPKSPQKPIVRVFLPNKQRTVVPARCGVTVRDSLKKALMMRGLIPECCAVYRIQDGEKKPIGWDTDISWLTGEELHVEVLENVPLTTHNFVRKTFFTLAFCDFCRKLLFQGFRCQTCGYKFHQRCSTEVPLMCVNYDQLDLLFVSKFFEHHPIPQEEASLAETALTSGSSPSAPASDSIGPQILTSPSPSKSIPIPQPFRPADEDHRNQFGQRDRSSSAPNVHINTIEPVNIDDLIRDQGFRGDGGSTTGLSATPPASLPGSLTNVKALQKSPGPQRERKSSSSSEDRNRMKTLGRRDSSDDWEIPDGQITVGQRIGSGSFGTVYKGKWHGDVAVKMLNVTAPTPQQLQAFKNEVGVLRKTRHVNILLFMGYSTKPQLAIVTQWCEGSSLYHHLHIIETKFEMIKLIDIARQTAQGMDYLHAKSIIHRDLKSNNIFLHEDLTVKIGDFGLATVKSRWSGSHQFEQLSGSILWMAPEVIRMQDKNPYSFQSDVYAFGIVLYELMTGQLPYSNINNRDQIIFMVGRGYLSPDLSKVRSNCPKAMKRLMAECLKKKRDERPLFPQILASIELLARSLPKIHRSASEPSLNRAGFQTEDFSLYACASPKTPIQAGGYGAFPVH
UniProt O15392, whole entry, looked up: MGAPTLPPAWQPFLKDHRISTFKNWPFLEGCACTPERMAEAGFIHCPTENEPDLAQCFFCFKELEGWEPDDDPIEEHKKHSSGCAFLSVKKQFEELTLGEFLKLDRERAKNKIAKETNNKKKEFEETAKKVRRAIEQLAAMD
UniProt Q92843: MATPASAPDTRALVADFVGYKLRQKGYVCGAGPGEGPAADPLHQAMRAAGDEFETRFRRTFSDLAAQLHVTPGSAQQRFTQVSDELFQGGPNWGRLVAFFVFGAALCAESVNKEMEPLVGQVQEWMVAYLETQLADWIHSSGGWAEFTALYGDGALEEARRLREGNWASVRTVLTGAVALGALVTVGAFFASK
UniProt Q7Z569: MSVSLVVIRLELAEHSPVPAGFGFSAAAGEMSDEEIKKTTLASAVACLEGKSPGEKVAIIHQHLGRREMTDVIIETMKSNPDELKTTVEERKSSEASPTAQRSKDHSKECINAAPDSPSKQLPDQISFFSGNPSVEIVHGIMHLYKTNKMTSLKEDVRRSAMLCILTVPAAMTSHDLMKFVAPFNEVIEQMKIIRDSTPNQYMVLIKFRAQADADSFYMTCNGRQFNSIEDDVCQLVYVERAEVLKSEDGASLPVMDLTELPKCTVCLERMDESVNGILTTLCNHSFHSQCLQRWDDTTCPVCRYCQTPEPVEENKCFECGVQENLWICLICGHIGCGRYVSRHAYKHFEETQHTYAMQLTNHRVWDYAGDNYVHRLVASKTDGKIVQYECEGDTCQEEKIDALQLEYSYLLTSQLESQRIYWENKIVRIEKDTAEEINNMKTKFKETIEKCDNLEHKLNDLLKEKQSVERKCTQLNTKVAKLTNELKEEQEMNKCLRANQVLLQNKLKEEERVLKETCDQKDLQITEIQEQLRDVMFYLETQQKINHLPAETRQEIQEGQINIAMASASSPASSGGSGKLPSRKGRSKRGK
UniProt Q12981: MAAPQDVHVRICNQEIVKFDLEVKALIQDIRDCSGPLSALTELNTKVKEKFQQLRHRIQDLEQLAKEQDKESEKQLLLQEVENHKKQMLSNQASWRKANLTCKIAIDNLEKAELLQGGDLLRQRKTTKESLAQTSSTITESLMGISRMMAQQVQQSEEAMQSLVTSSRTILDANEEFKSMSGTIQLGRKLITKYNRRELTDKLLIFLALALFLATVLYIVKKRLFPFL
UniProt Q4VC05, whole entry, looked up: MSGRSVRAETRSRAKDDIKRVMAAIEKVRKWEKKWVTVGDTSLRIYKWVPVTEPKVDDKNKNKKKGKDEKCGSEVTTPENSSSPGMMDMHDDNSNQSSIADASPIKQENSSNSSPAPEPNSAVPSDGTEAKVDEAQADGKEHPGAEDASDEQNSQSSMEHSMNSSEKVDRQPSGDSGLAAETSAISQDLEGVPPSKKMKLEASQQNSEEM
UniProt P21953: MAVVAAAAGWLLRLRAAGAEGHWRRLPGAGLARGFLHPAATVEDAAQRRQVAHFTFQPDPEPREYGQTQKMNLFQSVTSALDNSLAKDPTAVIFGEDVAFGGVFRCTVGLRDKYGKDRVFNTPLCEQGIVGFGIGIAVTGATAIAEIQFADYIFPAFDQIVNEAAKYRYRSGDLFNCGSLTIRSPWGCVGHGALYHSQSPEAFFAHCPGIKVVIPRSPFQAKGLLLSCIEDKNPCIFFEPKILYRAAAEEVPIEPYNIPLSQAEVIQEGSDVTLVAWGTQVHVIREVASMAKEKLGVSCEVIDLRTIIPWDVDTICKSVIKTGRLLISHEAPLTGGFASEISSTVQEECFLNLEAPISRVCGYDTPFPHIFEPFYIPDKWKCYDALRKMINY
UniProt Q9BXK5, whole entry, looked up: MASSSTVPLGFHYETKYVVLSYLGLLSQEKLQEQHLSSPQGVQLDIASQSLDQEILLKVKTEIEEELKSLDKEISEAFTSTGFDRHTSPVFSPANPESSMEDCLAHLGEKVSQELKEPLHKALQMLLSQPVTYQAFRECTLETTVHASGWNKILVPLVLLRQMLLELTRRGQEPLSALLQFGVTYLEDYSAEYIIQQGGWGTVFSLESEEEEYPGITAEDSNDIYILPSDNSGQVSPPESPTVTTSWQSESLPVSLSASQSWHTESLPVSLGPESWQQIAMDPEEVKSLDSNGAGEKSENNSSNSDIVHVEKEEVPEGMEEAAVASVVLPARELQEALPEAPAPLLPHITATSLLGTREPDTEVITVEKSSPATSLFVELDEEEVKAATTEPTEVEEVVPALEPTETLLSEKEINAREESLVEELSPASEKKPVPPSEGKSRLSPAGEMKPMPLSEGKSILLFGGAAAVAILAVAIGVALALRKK
UniProt Q9NYF8, whole entry, looked up: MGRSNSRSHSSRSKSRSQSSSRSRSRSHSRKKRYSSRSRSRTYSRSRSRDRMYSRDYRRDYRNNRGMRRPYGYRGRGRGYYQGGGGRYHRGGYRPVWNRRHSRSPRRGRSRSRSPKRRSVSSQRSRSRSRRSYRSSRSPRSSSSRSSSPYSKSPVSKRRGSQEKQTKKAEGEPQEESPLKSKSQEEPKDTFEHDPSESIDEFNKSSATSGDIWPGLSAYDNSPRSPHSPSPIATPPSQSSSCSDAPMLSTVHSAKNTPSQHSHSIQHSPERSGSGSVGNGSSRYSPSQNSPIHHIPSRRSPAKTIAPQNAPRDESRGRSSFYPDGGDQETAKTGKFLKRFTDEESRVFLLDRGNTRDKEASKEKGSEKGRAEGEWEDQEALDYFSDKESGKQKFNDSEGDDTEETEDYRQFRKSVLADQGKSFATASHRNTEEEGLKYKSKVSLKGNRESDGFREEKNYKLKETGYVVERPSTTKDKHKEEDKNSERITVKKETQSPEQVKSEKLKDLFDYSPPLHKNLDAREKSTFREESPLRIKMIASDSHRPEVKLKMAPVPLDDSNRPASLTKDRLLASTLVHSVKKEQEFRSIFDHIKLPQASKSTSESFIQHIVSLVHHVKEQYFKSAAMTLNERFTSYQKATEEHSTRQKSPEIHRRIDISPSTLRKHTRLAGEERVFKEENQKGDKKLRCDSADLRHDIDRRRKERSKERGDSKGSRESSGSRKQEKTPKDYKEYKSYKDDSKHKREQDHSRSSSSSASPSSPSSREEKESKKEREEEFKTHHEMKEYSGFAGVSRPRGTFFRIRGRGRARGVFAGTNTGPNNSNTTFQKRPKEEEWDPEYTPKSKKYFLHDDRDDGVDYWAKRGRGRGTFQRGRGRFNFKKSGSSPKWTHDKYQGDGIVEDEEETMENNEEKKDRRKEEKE
UniProt O14981: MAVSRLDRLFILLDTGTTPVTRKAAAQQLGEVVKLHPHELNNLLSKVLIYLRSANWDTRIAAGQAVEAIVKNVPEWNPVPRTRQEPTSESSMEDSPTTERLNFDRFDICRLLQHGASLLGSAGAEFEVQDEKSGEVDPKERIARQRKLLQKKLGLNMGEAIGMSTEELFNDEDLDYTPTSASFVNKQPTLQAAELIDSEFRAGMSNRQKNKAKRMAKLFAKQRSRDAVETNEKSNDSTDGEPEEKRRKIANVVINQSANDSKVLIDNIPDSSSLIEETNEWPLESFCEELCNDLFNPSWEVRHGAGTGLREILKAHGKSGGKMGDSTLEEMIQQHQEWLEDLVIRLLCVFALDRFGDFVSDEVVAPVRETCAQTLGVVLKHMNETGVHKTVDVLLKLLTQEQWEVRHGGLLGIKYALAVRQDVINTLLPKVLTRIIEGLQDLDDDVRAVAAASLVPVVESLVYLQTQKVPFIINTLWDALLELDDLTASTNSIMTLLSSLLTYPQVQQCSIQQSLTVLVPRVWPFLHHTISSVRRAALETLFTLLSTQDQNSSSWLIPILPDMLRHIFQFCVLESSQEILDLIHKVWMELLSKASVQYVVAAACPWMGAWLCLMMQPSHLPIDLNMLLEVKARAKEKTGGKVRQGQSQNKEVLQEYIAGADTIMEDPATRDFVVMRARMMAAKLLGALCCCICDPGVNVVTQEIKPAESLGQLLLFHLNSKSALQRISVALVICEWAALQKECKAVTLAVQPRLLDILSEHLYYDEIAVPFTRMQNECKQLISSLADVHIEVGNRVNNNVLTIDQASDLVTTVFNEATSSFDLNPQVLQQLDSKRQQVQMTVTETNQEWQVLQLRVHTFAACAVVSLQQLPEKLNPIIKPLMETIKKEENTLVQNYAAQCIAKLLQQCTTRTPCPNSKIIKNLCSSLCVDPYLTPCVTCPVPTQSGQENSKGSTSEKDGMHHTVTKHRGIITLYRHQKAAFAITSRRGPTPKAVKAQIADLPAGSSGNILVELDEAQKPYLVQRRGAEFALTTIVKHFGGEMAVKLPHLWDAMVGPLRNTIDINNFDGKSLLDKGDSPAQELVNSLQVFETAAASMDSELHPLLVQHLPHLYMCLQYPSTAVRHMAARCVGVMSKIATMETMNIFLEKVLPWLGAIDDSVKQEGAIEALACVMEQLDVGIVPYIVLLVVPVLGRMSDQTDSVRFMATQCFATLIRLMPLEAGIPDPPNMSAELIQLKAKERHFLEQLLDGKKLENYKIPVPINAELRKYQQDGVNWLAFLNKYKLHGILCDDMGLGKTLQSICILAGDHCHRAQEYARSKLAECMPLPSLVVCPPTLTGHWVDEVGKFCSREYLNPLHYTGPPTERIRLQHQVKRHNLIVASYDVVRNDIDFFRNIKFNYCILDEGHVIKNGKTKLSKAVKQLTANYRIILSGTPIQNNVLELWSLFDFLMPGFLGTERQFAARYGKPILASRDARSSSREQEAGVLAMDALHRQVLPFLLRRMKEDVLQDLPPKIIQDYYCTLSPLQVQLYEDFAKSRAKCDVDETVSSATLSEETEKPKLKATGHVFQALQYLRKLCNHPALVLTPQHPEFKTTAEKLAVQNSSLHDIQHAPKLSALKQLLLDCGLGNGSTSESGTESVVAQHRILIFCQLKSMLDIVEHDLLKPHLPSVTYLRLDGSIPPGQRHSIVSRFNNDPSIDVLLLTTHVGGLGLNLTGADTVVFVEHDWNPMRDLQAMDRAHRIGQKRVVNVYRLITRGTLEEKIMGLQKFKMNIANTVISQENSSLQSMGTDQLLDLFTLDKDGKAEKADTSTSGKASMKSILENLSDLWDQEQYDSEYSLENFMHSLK
UniProt Q14137: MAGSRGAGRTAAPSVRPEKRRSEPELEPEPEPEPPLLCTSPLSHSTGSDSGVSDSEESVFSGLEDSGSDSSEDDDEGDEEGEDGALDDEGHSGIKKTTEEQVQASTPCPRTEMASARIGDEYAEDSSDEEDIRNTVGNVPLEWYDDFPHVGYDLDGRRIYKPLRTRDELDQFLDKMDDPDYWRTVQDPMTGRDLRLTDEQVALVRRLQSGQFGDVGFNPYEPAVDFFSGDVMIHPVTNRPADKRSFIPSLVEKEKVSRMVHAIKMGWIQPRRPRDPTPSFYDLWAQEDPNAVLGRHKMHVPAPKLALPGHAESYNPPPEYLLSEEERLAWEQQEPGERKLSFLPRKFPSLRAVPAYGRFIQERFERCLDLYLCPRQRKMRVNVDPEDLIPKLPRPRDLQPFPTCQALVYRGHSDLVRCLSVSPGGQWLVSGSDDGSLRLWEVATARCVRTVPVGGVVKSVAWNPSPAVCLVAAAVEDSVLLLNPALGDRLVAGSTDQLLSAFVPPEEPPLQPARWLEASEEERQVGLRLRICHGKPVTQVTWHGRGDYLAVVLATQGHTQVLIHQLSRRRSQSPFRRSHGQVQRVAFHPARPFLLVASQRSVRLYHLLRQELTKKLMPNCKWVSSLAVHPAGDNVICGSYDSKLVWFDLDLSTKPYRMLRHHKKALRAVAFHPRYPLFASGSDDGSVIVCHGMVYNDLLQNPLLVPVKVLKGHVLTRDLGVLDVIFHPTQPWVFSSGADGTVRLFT

Common to all, as to assay: log2 fold change, soluble protein after heating vs DMSO (PISA); higher = thermal stabilisation; K562 lysate, 10 uM; active = over 0.2 and 3.5 SD of the protein, either way, in both replicates (recomputed)
Compound in one test: CCCS(=O)(=O)Nc1ccc(F)c(C(=O)c2c[nH]c3ncc(-c4ccc(Cl)cc4)cc23)c1F [vemurafenib]
A digest of the protocol: (§1)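 Log-two fold change in thermal stability relative to solvent controls is reported from duplicates. For each sample, crude K562 extract from dounce-homogenised pellets in PBS pH 7.4 with 1 mM MgCl2, at 1 mg/mL protein, was treated with 10 μM compound for 30 min. Aliquots heated for 3 min across 48°C-58°C were pooled, brought to 0.5% NP-40 at 4°C and cleared at 21,000xg for 90 min. The supernatant was quantified by TMTpro 16plex LC-MS/MS with channel sums equalised.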

Compound in test [1]: CCCS(=O)(=O)Nc1ccc(F)c(C(=O)c2c[nH]c3ncc(Cl)cc23)c1F
In outline:
as §1

Compound in a further test: CCN(CCCOc1ccc2c(Nc3cc(CC(=O)Nc4cccc(F)c4)[nH]n3)ncnc2c1)CCOP(=O)(O)O [barasertib]
In outline:
as §1

Compound in test [2]: CC[C@@H]1C(=O)N(C)c2cnc(Nc3ccc(C(=O)NC4CCN(C)CC4)cc3OC)nc2N1C1CCCC1
A digest of the protocol:
as §1

Compound in another test: CC[C@@H]1C(=O)N(C)c2cnc(Nc3ccc(C(=O)N[C@H]4CC[C@H](N5CCN(CC6CC6)CC5)CC4)cc3OC)nc2N1C(C)C [volasertib]
In outline: as §1

Compound in test [3]: CCn1c(C(=O)N(C2CC2)C2CC2)cc2c3c(ncn3C)c(Nc3cc(C)n(C)n3)nc21
In outline: as §1

Compound in test [4]: CCn1cc(-c2ccnc3[nH]c(-c4cccc(CN(C)C)c4)cc23)c(-c2ccc(NC(=O)N(C)C)cc2)n1
In outline:
as §1

Compound in test [5]: CN1CCC(CNc2ccc3ncc(-c4cccc(OC(F)(F)F)c4)n3n2)CC1
In outline: as §1

Compound in the next test: CN1CCN(CCOc2cc(OC3CCOCC3)c3c(Nc4c(Cl)ccc5c4OCO5)ncnc3c2)CC1 [saracatinib]
A digest of the protocol: as §1

Compound in a further test: CN1CCN(c2nc(C3=C(c4c[nH]c5ccccc45)C(=O)NC3=O)c3ccccc3n2)CC1 [sotrastaurin]
In outline: as §1

The other results are listed elsewhere or left out.

BRAF (UniProt P15056): the log2 fold change with vemurafenib was active: 1.03; in test [1], active: 0.765; in the test with barasertib, inactive: 0.012; in test [2], inactive: -0.069; with volasertib, inactive: -0.044; in test [3], inactive: -0.023. The log2 fold change is inactive: -0.11 in test [4], inactive: 0.037 in test [5], inactive: 0.017 in the test with saracatinib and inactive: -0.025 in the test with sotrastaurin.

Turning to BIRC5 (UniProt O15392), the log2 fold change with vemurafenib was inactive: -0.035; in [1] it was inactive: -0.053; with barasertib, inactive: 0.012; in [2] it was inactive: -0.107; in the test with volasertib, inactive: 0.003; in [3], inactive: -0.051. For the same target, the log2 fold change was inactive: -0.001 in [4], inactive: 0.066 in test [5], inactive: 0.039 in the test with saracatinib and inactive: -0.001 in the test with sotrastaurin.

For the target BCL2L2 isoform 2 (UniProt Q92843), the log2 fold change is inactive: -0.013 with vemurafenib; inactive: 0.023 in [1]; inactive: 0.004 with barasertib; inactive: -0.007 in test [2]; inactive: -0.011 in the test with volasertib; inactive: -0.01 in test [3]. The log2 fold change is inactive: 0.036 in [4], inactive: 0.023 in [5], inactive: -0.014 with saracatinib and inactive: 0.003 with sotrastaurin.

For the target BRAP (UniProt Q7Z569), the log2 fold change is inactive: 0.024 with vemurafenib; inactive: 0.012 in [1]; inactive: 0.073 with barasertib; inactive: 0.044 in [2]; inactive: -0.001 with volasertib; inactive: -0.025 in test [3]. In addition, the log2 fold change in [4] is inactive: -0.042; in [5], inactive: 0.03; in the test with saracatinib, inactive: 0.006; with sotrastaurin it was inactive: 0.027.

In the case of BNIP1 (UniProt Q12981), the log2 fold change is inactive: 0.024 in the test with vemurafenib; inactive: 0 in [1]; inactive: 0.057 with barasertib; inactive: -0.032 in test [2]; inactive: -0.054 in the test with volasertib; inactive: -0.013 in test [3]. Moreover, the log2 fold change in test [4] was active: 0.287; in test [5] it was inactive: -0.204; with saracatinib, inactive: 0.032; with sotrastaurin it was inactive: 0.006.

With BCL7A isoform 2 (UniProt Q4VC05), the log2 fold change with vemurafenib is inactive: -0.054; in test [1] it was inactive: -0.047; with barasertib, inactive: 0.067; in test [2], inactive: 0.046; with volasertib, inactive: 0.032; in test [3], inactive: 0.101. Besides, the log2 fold change is inactive: 0.032 in [4], inactive: -0.065 in test [5], inactive: -0.008 in the test with saracatinib and inactive: -0.023 in the test with sotrastaurin.

Take BCKDHB (UniProt P21953): the log2 fold change with vemurafenib is inactive: 0.068; in test [1], inactive: 0.032; in the test with barasertib, inactive: 0.065; in test [2] it was inactive: -0.102; with volasertib, inactive: -0.079; in [3], inactive: -0.064. Further, the log2 fold change was inactive: 0.022 in [4], inactive: -0.02 in [5], inactive: -0.012 with saracatinib and inactive: 0.129 in the test with sotrastaurin.

In the case of BCL2L13 (UniProt Q9BXK5), the log2 fold change with vemurafenib was inactive: 0.003; in test [1] it was inactive: -0.033; with barasertib, inactive: -0.028; in test [2], inactive: 0.024; with volasertib, inactive: 0.008; in test [3], inactive: -0.026. Moreover, the log2 fold change was inactive: 0.041 in test [4], inactive: 0.002 in [5], inactive: -0.053 with saracatinib and inactive: 0.025 in the test with sotrastaurin.

Take BAG1 (UniProt Q99933): the log2 fold change in the test with vemurafenib is inactive: -0.025; in test [1] it was inactive: 0.01; with barasertib, inactive: 0.017; in test [2], inactive: 0.013; with volasertib, inactive: 0.004; in test [3], inactive: -0.023. The log2 fold change in [4] is inactive: -0.081; in [5] it was inactive: 0.153; with saracatinib, inactive: -0.015; with sotrastaurin it was inactive: -0.04.

On to BCLAF1 (UniProt Q9NYF8), for which the log2 fold change in the test with vemurafenib is inactive: -0.034; in test [1], inactive: 0.03; with barasertib, inactive: 0.027; in test [2], inactive: -0.018; with volasertib, inactive: 0.018; in test [3], inactive: -0.032. For the same target, the log2 fold change in test [4] was inactive: 0.135; in test [5] it was inactive: -0.083; with saracatinib, inactive: 0.01; with sotrastaurin it was inactive: 0.039.

For BIRC6 (UniProt Q9NR09), the log2 fold change with vemurafenib was inactive: -0.018; in [1] it was inactive: 0.019; with barasertib it was inactive: 0.013; in test [2] it was inactive: -0.018; with volasertib it was inactive: -0.015; in test [3], inactive: 0.021. The log2 fold change in test [4] was inactive: -0.046; in [5], inactive: 0.002; with saracatinib, inactive: -0.005; with sotrastaurin it was inactive: -0.007.

Turning to BCCIP isoform 2 (UniProt Q9P287), the log2 fold change with vemurafenib is inactive: -0.051; in test [1] it was inactive: -0.014; with barasertib, inactive: 0.01; in test [2], inactive: -0.062; with volasertib, inactive: 0.014; in test [3], inactive: 0.015. In addition, the log2 fold change is inactive: 0.066 in test [4], inactive: -0.053 in test [5], inactive: -0.016 in the test with saracatinib and inactive: 0.014 with sotrastaurin.

Regarding BTAF1 (UniProt O14981), the log2 fold change is inactive: 0.029 with vemurafenib; inactive: 0.026 in test [1]; inactive: 0.029 in the test with barasertib; inactive: -0.029 in test [2]; inactive: -0.058 in the test with volasertib; inactive: 0.045 in test [3]. Also, the log2 fold change in [4] is inactive: -0.138; in test [5], inactive: 0.051; with saracatinib, inactive: 0.008; in the test with sotrastaurin it was inactive: 0.006.

Turning to BOP1 (UniProt Q14137), the log2 fold change with vemurafenib was inactive: 0.013; in test [1] it was inactive: 0.009; with barasertib, inactive: -0.027; in test [2] it was inactive: -0.001; in the test with volasertib, inactive: -0.027; in test [3] it was inactive: 0.02. The log2 fold change in test [4] was inactive: 0.004; in test [5], inactive: 0.02; with saracatinib it was inactive: 0.029; in the test with sotrastaurin, inactive: 0.026.

BPTF (UniProt Q12830): the log2 fold change in the test with vemurafenib is inactive: 0.054; in [1], inactive: -0.011; with barasertib, inactive: -0.039; in test [2] it was inactive: -0.02; with volasertib, inactive: -0.041; in [3], inactive: -0.025. The log2 fold change in test [4] was inactive: -0.012; in test [5], inactive: 0.01; with saracatinib, inactive: 0.032; with sotrastaurin, inactive: 0.
